{
  "sequences": {"note": "Sequences of proteins named here, by UniProt entry; tags and fusion partners are left off.", "UniProt Q9Y463, whole entry": "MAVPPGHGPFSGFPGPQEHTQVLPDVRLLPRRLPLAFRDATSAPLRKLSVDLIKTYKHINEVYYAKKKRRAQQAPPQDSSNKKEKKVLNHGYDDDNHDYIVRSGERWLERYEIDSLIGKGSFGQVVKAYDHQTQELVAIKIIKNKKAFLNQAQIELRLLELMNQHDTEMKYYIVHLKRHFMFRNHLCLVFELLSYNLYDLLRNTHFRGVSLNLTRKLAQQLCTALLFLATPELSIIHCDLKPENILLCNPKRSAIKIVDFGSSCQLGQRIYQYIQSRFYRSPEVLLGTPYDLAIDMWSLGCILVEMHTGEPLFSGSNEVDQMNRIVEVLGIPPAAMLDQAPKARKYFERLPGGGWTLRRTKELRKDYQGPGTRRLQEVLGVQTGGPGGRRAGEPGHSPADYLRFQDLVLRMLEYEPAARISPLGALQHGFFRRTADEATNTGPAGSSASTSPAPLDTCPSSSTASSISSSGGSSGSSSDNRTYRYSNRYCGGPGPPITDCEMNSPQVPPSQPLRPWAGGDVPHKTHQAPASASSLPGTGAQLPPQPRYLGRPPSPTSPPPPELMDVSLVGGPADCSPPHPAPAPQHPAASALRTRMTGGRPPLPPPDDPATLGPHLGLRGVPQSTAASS"},
  "source": "ChEMBL document CHEMBL4007420",
  "about": "“Structural Optimization and Pharmacological Evaluation of Inhibitors Targeting Dual-Specificity Tyrosine Phosphorylation-Regulated Kinases (DYRK) and CDC-like kinases (CLK) in Glioblastoma” (J Med Chem, 2017)",
  "target": "Dual specificity tyrosine-phosphorylation-regulated kinase 1B (Homo sapiens, UniProt Q9Y463)",
  "assay": "Inhibition of recombinant GST-tagged DYRK1B (unknown origin) expressed in Escherichia coli using DYRKtide as substrate after 5 mins in presence of [gamma-33P]ATP by liquid scintillation counting",
  "data": [
    {"smiles": "COc1ccc2c(c1)[nH]c1c(C)nccc12", "note": "[HARMINE]", "values": [
      {"measurement": "IC50", "value": 160, "unit": "nM"}
    ]}
  ]
}
